Paper PMC3117731, “A systems biology approach to dynamic modeling and inter-subject variability of statin pharmacokinetics in human hepatocytes” (BMC Systems Biology, 2011)

The chains behind the UniProt entries cited, without tags or fusion partners. Residues count along the entry.
UniProt P35503, 29-534: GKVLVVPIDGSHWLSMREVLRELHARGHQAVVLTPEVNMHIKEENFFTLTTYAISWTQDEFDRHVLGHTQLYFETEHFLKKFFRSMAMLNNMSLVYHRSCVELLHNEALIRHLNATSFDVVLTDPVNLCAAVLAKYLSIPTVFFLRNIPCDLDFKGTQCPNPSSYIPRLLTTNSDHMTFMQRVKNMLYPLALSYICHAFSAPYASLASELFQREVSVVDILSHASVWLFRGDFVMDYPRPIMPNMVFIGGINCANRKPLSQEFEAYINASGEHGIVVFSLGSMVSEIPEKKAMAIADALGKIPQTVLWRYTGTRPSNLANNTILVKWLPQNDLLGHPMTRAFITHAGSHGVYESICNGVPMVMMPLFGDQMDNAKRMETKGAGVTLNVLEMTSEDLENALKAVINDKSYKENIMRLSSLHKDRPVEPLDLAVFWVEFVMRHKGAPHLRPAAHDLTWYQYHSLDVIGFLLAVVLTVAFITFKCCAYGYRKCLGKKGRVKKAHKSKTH
UniProt P08684, 2-503 limits assumed: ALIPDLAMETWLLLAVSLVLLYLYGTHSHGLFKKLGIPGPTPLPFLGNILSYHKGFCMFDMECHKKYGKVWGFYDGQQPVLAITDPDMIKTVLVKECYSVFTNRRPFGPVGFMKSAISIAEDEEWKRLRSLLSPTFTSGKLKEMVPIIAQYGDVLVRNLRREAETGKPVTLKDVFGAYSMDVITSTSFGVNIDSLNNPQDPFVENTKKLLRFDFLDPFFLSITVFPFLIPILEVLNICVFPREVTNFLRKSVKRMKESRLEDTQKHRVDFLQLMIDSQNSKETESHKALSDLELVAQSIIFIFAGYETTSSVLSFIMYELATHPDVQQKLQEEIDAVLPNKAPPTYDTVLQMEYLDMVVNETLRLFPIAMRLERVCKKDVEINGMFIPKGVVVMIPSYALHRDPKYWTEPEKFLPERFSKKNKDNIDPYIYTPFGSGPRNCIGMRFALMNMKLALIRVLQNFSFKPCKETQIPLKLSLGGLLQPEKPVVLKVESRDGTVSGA

Assays:
OATP1B1 = conditions: read-out: KM,1B1 (Michaelis-Menten constant of OATP1B1 import); recombinant; fixed in the optimization; cited from earlier work
UGT1A3 = UGT1A3 (Homo sapiens, UniProt P35503); conditions: human liver microsomes, substrate inhibition kinetics, fixed in the optimization, cited from earlier work
CYP3A4 = CYP3A4 (Homo sapiens, UniProt P08684); conditions: CYP3A4 mediated hydroxylation of AS on human microsomes; cited from earlier work
OATP2B1 = conditions: read-out: KM,2B1 (Michaelis-Menten constant of OATP2B1 import); recombinant; fixed in the optimization; cited from earlier work
[1] = clinical studies in humans; cited from earlier work
[2] = test system: primary human hepatocytes; assay: Apparent (lumped active transport and passive diffusion) import and export in primary human hepatocytes; format: in vitro ADME
Excerpt: Thus, in the following, mechanisms of active transport and passive diffusion are lumped, resulting in the apparent transport rate for import,(12) [drawing 22]
and in the apparent transport rate for export(13) [drawing 23]
described by the product of apparent rate constant κ im/ex of import or export and extra- or intracellular concentration [drawing 24] , respectively (Figure 3). Consequently, the rate constants κ of import and export are set individually, and were to be estimated in the optimization procedure.

[3] = Individual 1, nominal value from optimization
[4] = Individual 2, nominal value from optimization
[5] = Individual 3, nominal value from optimization

SMILES: CC(C)c1c(C(=O)Nc2ccccc2)c(-c2ccccc2)c(-c2ccc(F)cc2)n1CC[C@@H](O)C[C@@H](O)CC(=O)O [AS, atorvastatin acid, reference compound]
- Km (OATP1B1): 18.9 µM
- Ki (UGT1A3; read-out: KI,1A3 (KI of UGT1A3-lactonization, substrate inhibition)): 75 µM
- Km (UGT1A3; read-out: KM,1A3 (KM of UGT1A3-lactonization)): 12 µM
- concentration above which substrate inhibition effects contribute severely (CYP3A4): higher than 100 μM
- Km (OATP2B1): 0.2 µM
- plasma concentrations observed [1]: lower than 200 pmol ml^-1
- κex (apparent rate constant of export) [2, 3]: 2.17 µL/min
- κim (apparent rate constant of import) [2, 3]: 20.3 µL/min
- κex (apparent rate constant of export) [2, 4]: 0.16 µL/min
- κim (apparent rate constant of import) [2, 4]: 4.42 µL/min
- κex (apparent rate constant of export) [2, 5]: 0.17 µL/min
- κim (apparent rate constant of import) [2, 5]: 3.45 µL/min
